Measured values as given in patent publication US20230218714A1, “DIAGNOSTICS AND USE OF QUORUM SENSING MOLECULES IN MUSCLE WASTING” (Universiteit Gent, priority 2019, published 2023).
Where no end group is shown, it is not given here.

Columns and labels:
[1] = test system: C2C12 myoblasts; assay: MTT cell viability assay in C2C12 myoblasts; settings: MTT concentration-response curve, Blasts
Experimental: The mouse myoblast C2C12 cell line (ATCC, CRL-1772) was cultured at 37° C. in a 5% CO2 humidified incubator in Dulbecco's modified Eagle medium (DMEM; Thermo Fisher Scientific). For C2C12 cell proliferation, the medium was supplemented with 10% fetal bovine serum (FBS; Thermo Fisher Scientific), 100 units/ml penicillin, and 100 μg/ml streptomycin (1% Pen/Strep; Thermo Fisher Scientific). The proliferation medium was renewed each 2-3 days and confluency was kept below 80%. For differentiation of the C2C12 myoblasts into myotubes, proliferation medium was replaced by differentiation medium when cells reached 80% confluency.
Viability of QSM was assessed using the 3-(4,5-dimethylthiazol-2-yl)-2,5-diphenyltetrazolium bromide (MTT) assay. Briefly, C2C12 myoblasts were seeded in a 96-well plate (3×10^4 cells/well). 24 hours post-seeding, the wells were treated with QSM (1 μM), placebo or positive control (DMSO 2%) and incubated for 24 hours at 37° C. Next, 20 μL of MTT reagent (5 mg/mL; Sigma-Aldrich) was added to each well and the plates were returned to the incubator for 2.5 hours. […] Absorbance was measured at 570 nm using a microplate reader (Thermo Fisher). […]
In a further set of experiments, the dose response effect of QSPs Q22 and Q184 was assessed on MTT reduction of C2C12 myotubes (tables 7.4 and 7.5).

[2] = test system: C2C12 myotubes; assay: MTT reduction dose response in C2C12 myotubes; assay type: cell-based, mouse; settings: MTT concentration-response curve, Tubes
Experimental: In a further set of experiments, using similar methods as described for the screening experiments, a number of QSPs were tested for a dose response relation in C2C12 cells.

SIFTLVA [Q184, SIFTLVA]
Slope [1]: 1.67
Slope [2]: 0.68
